Experimental data from the supplement of paper PMC10849652.
The list shows a part of the results.

The chains behind the UniProt entries cited, without tags or fusion partners. Where a name states a change or a piece, a line headed by the entry shows the natural chain unless it says otherwise.
UniProt Q9NXW2: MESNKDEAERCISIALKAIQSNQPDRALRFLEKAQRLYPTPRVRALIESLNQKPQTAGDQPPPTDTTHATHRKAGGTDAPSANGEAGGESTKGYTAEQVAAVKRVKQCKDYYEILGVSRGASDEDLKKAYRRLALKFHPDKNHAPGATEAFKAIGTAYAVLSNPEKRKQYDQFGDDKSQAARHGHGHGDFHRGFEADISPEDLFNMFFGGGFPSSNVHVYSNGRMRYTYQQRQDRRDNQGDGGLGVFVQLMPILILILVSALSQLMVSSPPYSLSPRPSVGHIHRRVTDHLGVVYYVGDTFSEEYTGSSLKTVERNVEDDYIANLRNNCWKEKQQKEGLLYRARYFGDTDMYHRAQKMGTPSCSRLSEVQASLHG
UniProt Q7RTS9: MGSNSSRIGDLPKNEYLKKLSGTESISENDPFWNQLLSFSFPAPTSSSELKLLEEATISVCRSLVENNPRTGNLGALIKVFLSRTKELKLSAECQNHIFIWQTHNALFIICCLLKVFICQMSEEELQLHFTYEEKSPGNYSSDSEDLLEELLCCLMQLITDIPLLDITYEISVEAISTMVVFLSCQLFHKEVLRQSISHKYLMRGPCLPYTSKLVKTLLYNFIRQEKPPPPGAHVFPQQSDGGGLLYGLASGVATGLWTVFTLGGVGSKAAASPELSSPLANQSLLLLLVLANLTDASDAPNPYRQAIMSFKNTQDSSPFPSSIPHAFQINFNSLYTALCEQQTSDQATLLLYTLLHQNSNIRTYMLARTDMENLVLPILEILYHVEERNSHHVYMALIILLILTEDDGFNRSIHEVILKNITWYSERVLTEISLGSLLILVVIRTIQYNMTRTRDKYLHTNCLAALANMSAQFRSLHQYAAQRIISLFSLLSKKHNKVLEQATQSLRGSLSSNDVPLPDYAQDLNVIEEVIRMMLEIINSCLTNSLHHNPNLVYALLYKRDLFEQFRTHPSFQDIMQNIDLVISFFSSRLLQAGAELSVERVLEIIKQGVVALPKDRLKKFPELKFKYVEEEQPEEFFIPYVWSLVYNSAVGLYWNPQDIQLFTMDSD
UniProt Q9Y295: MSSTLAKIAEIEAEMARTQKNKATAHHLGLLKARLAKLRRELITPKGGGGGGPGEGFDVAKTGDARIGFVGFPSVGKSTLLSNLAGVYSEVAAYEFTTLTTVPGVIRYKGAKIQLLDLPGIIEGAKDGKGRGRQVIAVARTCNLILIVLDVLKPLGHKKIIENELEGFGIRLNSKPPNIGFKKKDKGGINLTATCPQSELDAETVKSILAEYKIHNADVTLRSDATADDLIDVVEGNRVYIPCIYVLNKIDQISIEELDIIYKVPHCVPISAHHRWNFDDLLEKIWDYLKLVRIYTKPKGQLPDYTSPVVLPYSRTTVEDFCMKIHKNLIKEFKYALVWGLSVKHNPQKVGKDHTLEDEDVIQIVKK
UniProt Q13011: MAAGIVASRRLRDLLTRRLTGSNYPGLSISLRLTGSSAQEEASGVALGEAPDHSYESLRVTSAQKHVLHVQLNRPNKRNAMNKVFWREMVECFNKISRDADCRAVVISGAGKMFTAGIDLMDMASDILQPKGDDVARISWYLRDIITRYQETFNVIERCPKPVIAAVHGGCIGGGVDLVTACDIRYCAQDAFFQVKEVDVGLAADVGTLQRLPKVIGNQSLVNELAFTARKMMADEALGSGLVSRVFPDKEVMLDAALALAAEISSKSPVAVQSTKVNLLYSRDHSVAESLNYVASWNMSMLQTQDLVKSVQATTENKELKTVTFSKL
UniProt Q8TBM8: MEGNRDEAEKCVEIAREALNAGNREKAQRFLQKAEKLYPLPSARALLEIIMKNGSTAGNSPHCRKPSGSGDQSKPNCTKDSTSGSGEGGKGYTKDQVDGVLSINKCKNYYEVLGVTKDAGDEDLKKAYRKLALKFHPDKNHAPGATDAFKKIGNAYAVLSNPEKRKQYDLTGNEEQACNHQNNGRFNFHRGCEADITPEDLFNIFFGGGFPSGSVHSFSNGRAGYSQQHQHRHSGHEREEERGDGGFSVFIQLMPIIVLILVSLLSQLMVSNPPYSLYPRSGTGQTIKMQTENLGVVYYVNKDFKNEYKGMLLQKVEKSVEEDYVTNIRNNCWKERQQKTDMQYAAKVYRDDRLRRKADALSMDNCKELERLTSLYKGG
UniProt Q66K89: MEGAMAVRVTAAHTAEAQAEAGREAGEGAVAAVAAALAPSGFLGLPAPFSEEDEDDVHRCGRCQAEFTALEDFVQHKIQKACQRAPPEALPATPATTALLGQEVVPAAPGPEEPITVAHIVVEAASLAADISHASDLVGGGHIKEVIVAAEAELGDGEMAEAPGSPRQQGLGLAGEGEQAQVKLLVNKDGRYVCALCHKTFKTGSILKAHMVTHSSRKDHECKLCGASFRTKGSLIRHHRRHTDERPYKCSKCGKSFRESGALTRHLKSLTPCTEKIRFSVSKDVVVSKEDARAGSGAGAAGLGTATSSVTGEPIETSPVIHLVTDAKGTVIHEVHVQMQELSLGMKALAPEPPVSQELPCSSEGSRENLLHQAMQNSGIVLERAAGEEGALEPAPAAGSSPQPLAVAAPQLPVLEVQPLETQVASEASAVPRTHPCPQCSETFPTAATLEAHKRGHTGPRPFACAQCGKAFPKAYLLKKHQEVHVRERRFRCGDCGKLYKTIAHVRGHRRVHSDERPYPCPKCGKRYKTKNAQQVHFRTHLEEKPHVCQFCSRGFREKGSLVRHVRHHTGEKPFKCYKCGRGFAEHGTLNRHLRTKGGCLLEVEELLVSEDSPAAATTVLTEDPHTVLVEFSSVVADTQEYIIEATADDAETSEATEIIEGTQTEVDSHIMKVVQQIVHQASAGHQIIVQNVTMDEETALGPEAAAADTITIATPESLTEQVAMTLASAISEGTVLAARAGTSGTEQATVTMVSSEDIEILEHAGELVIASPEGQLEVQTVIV
UniProt P50570: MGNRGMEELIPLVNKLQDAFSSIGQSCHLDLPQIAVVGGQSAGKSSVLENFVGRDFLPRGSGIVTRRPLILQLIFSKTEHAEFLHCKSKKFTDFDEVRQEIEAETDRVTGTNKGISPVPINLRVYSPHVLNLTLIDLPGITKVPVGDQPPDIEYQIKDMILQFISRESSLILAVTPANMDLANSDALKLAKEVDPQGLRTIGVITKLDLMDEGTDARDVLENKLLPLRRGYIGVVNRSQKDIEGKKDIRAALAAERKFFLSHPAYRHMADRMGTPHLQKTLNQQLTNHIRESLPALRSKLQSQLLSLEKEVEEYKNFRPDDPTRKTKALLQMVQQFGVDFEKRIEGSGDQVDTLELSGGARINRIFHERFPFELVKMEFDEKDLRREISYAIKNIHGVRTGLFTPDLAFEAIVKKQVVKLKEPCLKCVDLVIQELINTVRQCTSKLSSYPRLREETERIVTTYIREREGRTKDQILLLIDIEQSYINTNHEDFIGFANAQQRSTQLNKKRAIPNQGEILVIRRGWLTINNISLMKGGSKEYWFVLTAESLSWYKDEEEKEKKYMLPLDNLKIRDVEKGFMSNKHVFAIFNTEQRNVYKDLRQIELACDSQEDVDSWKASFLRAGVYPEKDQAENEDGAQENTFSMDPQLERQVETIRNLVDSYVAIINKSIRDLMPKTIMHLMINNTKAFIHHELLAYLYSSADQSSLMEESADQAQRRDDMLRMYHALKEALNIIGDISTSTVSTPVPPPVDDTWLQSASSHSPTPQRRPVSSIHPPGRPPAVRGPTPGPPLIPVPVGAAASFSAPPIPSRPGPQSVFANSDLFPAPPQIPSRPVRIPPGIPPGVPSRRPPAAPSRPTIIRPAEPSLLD
UniProt Q16254: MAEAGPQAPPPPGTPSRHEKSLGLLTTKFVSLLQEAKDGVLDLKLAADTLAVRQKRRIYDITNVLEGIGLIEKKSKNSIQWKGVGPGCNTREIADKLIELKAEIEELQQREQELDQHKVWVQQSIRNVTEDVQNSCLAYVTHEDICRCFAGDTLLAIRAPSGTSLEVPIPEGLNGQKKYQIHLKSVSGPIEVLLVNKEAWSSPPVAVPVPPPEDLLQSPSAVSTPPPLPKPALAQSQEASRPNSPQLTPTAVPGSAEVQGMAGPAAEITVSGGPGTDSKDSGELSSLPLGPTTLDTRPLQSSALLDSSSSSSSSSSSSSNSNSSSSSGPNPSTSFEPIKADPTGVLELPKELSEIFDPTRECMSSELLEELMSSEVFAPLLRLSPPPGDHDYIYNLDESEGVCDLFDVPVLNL
UniProt Q6V1X1: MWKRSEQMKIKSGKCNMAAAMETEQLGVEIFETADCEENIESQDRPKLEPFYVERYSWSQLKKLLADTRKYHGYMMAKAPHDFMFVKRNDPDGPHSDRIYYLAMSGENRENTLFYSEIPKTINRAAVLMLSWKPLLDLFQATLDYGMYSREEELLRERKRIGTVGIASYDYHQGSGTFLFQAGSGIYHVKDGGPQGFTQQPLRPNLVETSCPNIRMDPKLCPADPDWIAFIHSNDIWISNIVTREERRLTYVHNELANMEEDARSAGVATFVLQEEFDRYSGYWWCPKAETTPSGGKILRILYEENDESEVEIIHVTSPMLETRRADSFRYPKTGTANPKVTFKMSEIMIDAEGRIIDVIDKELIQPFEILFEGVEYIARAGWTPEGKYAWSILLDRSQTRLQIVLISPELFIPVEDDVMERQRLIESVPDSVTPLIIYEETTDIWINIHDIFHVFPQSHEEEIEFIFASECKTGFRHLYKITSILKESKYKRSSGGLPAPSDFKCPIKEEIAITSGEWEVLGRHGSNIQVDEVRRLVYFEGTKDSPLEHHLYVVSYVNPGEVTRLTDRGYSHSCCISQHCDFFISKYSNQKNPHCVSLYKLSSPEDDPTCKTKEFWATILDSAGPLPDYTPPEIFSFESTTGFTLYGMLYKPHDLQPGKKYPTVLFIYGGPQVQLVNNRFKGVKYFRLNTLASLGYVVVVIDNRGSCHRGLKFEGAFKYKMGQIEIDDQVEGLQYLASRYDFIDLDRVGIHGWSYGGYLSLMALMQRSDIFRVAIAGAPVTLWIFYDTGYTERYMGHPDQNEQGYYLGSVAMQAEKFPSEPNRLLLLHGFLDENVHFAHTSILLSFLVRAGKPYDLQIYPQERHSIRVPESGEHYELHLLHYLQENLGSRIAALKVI

Columns and labels:
Experiment in all cases: log2 fold change, soluble protein after heating vs DMSO (PISA); higher = thermal stabilisation; K562 cells, 10 uM, 30 min; active = over 0.2 and 3.5 SD of the protein, either way, in both replicates (recomputed)
[1] = compound: CS(=O)(=O)c1ccc(-c2cnc(N)c(C(=O)Nc3ccccc3)n2)cc1
Summary of the method: (§1)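 K562 cells at 2×10^6 cells/mL were given 10 μM compound for 30 min. Aliquots then went through 3 min of heating across 48°C-58°C, were pooled, and were extracted in PBS with 0.5% NP-40 at 4°C, and the supernatant after 21,000xg for 90 min was quantified by TMTpro 16plex LC-MS/MS with channel sums equalised. Thermal stability relative to control samples, from duplicates, is given as log2 fold change.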

crizotinib = compound: C[C@@H](Oc1cc(-c2cnn(C3CCNCC3)c2)cnc1N)c1c(Cl)ccc(F)c1Cl [crizotinib]
Summary of the method: as §1

[2] = compound: C[C@@H]1COCCN1C2=NC(=NC(=C2)C3(CC3)S(=O)(=O)C)C4=C5C=CNC5=CC=C4
Summary of the method: as §1

[3] = compound: C[C@H](C1=CC=C(C=C1)C(=O)NC2=C3C=CNC3=NC=C2)N
Summary of the method: as §1

gandotinib = compound: Cc1cc(Nc2cc(CN3CCOCC3)c3nc(C)c(Cc4ccc(Cl)cc4F)n3n2)n[nH]1 [gandotinib]
Summary of the method: as §1

[4] = compound: Cc1cc(SCc2sc(-c3ccc(C(F)(F)F)cc3)nc2C)ccc1OCC(=O)O
Summary of the method: as §1

doramapimod = compound: Cc1ccc(-n2nc(C(C)(C)C)cc2NC(=O)Nc2ccc(OCCN3CCOCC3)c3ccccc23)cc1 [doramapimod]
Summary of the method: as §1

ispinesib = compound: Cc1ccc(C(=O)N(CCCN)[C@@H](c2nc3cc(Cl)ccc3c(=O)n2Cc2ccccc2)C(C)C)cc1 [ispinesib]
Summary of the method: as §1

bafetinib = compound: Cc1ccc(NC(=O)c2ccc(CN3CC[C@H](N(C)C)C3)c(C(F)(F)F)c2)cc1Nc1nccc(-c2cncnc2)n1 [bafetinib]
Summary of the method: as §1

[5] = compound: Cc1cccc(CC(=O)N2CCc3c2ccc(-c2cn(C)c4ncnc(N)c24)c3F)n1
Summary of the method: as §1

nilotinib = compound: Cc1cn(-c2cc(NC(=O)c3ccc(C)c(Nc4nccc(-c5cccnc5)n4)c3)cc(C(F)(F)F)c2)cn1 [nilotinib]
Summary of the method: as §1

[6] = compound: Cc1nc(Nc2n[nH]c3c2CN(C(=O)N[C@H](CN(C)C)c2ccccc2)C3(C)C)c2sccc2n1
Summary of the method: as §1

dasatinib = compound: Cc1nc(Nc2ncc(C(=O)Nc3c(C)cccc3Cl)s2)cc(N2CCN(CCO)CC2)n1 [dasatinib]
Summary of the method: as §1

[7] = compound: Cc1ncc(-c2ccnc(Nc3ccc(S(C)(=O)=O)cc3)n2)n1C(C)C
Summary of the method: as §1

[8] = compound: Cn1cc(-c2ccc3c(c2)CCN3C(=O)Cc2cccc(C(F)(F)F)c2)c2c(N)ncnc21
Summary of the method: as §1

[9] = compound: Cn1cc(-c2ccc3nnc(C(F)(F)c4ccc5ncccc5c4)n3n2)cn1
Summary of the method: as §1

tipifarnib = compound: Cn1cncc1[C@@](N)(c1ccc(Cl)cc1)c1ccc2c(c1)c(-c1cccc(Cl)c1)cc(=O)n2C [tipifarnib]
Summary of the method: as §1

mubritinib = compound: FC(F)(F)c1ccc(/C=C/c2nc(COc3ccc(CCCCn4ccnn4)cc3)co2)cc1 [mubritinib]
Summary of the method: as §1

tozasertib = compound: Cc1cc(Nc2cc(N3CCN(C)CC3)nc(Sc3ccc(NC(=O)C4CC4)cc3)n2)n[nH]1 [tozasertib]
Summary of the method: as §1

duvelisib = compound: C[C@H](Nc1ncnc2nc[nH]c12)c1cc2cccc(Cl)c2c(=O)n1-c1ccccc1 [duvelisib]
Summary of the method: as §1

Measured: log2 fold change

DNAJB12 (UniProt Q9NXW2)
active: ispinesib -0.227
inactive: [1] 0.02 | crizotinib -0.029 | [2] 0.038 | [3] 0.035 | gandotinib -0.073 | [4] 0.097 | doramapimod -0.034 | bafetinib -0.057 | [5] 0.007 | nilotinib -0.158 | [6] 0.041 | dasatinib -0.068 | [7] 0.015 | [8] -0.04 | [9] -0.039 | tipifarnib 0.016 | mubritinib 0.01

DYM (UniProt Q7RTS9)
inactive: [1] -0.035 | crizotinib -0.251 | [2] 0.031 | [3] 0.367 | gandotinib -0.218 | tozasertib 0.025 | doramapimod -0.062 | ispinesib -0.026 | bafetinib 0.051 | [5] 0.017 | nilotinib -0.009 | [6] -0.069 | [7] -0.009 | [8] 0.169 | [9] -0.094 | tipifarnib -0.126 | mubritinib 0.024

DRG1 (UniProt Q9Y295)
inactive: [1] -0.01 | crizotinib -0.006 | [2] -0.074 | [3] 0.062 | duvelisib 0.003 | gandotinib 0.048 | tozasertib -0.018 | [4] -0.008 | doramapimod 0.026 | ispinesib 0.02 | bafetinib 0.08 | [5] -0.009 | nilotinib 0.035 | [6] 0.073 | dasatinib 0.061 | [7] 0.02 | [8] -0.053 | [9] -0.023 | tipifarnib 0.025 | mubritinib -0.008

ECH1 (UniProt Q13011)
inactive: [1] 0.025 | crizotinib -0.086 | [2] 0.068 | [3] -0.011 | gandotinib -0.195 | [4] -0.008 | doramapimod -0.023 | ispinesib -0.208 | bafetinib 0.318 | [5] -0.003 | nilotinib -0.024 | [6] 0.013 | dasatinib 0.249 | [7] -0.033 | [8] 0.134 | [9] 0.039 | tipifarnib -0.056 | mubritinib -0.011
active: tozasertib 0.434

Quoted from the entries so far (2 entries):
DYM (UniProt Q7RTS9)
inactive: [1] -0.035 | crizotinib -0.251 | [2] 0.031 | [3] 0.367 | gandotinib -0.218 | tozasertib 0.025 | doramapimod -0.062 | ispinesib -0.026 | bafetinib 0.051 | [5] 0.017 | nilotinib -0.009 | [6] -0.069 | [7] -0.009 | [8] 0.169 | [9] -0.094 | tipifarnib -0.126 | mubritinib 0.024

DRG1 (UniProt Q9Y295)
inactive: [1] -0.01 | crizotinib -0.006 | [2] -0.074 | [3] 0.062 | duvelisib 0.003 | gandotinib 0.048 | tozasertib -0.018 | [4] -0.008 | doramapimod 0.026 | ispinesib 0.02 | bafetinib 0.08 | [5] -0.009 | nilotinib 0.035 | [6] 0.073 | dasatinib 0.061 | [7] 0.02 | [8] -0.053 | [9] -0.023 | tipifarnib 0.025 | mubritinib -0.008

The results go on:

DNAJB14 (UniProt Q8TBM8)
inactive: [1] -0.017 | crizotinib -0.037 | [2] -0.012 | [3] -0.013 | gandotinib -0.071 | tozasertib -0.002 | doramapimod -0.017 | ispinesib -0.083 | bafetinib -0.095 | [5] 0.077 | nilotinib -0.02 | [6] 0.003 | [7] 0.07 | [8] 0.041 | [9] -0.013 | tipifarnib -0.143 | mubritinib 0.146

E4F1 (UniProt Q66K89)
inactive: [1] -0.558 | crizotinib 0.194 | [2] -0.112 | [3] -0.021 | duvelisib -0.225 | gandotinib 0.213 | tozasertib -0.006 | [4] -0.008 | doramapimod 0.087 | ispinesib -0.064 | bafetinib -0.139 | [5] 0.208 | dasatinib 0.117 | [8] -0.012 | [9] -0.408 | tipifarnib 0.148 | mubritinib -0.039

DNM2 (UniProt P50570)
inactive: [1] 0.017 | crizotinib -0.082 | [2] 0.062 | [3] -0.021 | gandotinib -0.06 | [4] 0.039 | doramapimod -0.039 | ispinesib -0.01 | bafetinib -0.035 | [5] 0 | nilotinib -0.054 | [6] -0.003 | dasatinib -0.099 | [7] 0 | [8] 0.075 | [9] 0.007 | tipifarnib -0.071 | mubritinib 0.017

E2F4 (UniProt Q16254)
inactive: [1] 0.04 | crizotinib -0.029 | [2] 0.024 | [3] -0.095 | gandotinib -0.034 | [4] -0.019 | doramapimod 0.024 | ispinesib -0.103 | bafetinib -0.053 | [5] -0.026 | nilotinib -0.016 | [6] -0.141 | dasatinib -0.095 | [7] 0.012 | [8] -0.007 | [9] -0.006 | tipifarnib -0.009 | mubritinib 0.01

DPP8 (UniProt Q6V1X1)
inactive: [1] 0.04 | crizotinib -0.003 | [2] 0.011 | [3] -0.048 | gandotinib -0.038 | [4] 0.006 | doramapimod 0.008 | ispinesib 0.019 | bafetinib -0.054 | [5] -0.035 | nilotinib 0.027 | [6] -0.019 | dasatinib 0.014 | [7] -0.001 | [8] 0.048 | [9] 0.054 | tipifarnib 0.065 | mubritinib 0.036
